Data from patent US20260158153A1 (priority 2021, published 2026).

Assay: general procedure: solution-phase peptide synthesis; HATU / diisopropylethylamine

Substance “(S)-(S)-(S)-(37-(4-(2, 5-dioxo-2, 5-dihydro-1H-pyrrol-1-yl)butanamido)-31, 38-dioxo-2, 5, 8, 11, 14, 17, 20, 23, 26, 29-decaoxa-32, 39-diazatritetracontan-43-oyl)glycylglycylglycine” has a step yield (late stage modification step) of 92%.
For “(S)-(S)-(37-(4-(2, 5-dioxo-2, 5-dihydro-1H-pyrrol-1-yl)butanamido)-31, 38-dioxo-2, 5, 8, 11, 14, 17, 20, 23, 26, 29-decaoxa-32, 39-diazatritetracontan-43-oyl)glycylglycine”, the step yield (late stage modification step, run 1) was 93% and the step yield (late stage modification step, run 2) was 100%.
In the case of “tert-butyl ((benzyloxy)carbonyl)glycylglycylglycylglycinate”, the step yield (coupling step) is reported as 80% yield.
Substance “tert-butyl (R)-5-(3-((37S,40S,43S)-37-(((benzyloxy)carbonyl)amino)-40-isopropyl-43-methyl-31,38,41-trioxo-2,5,8,11,14,17,20,23,26,29-decaoxa-32,39,42-triazatetratetracontan-44-amido)-4-hydroxyphenyl)-4-((tert-butoxycarbonyl)amino)pentanoate” has a step yield (coupling step) of 93% yield.
“(2S,3S)-2,3-bis(2,5-dioxo-2,5-dihydro-1H-pyrrol-1-yl)-N1,N4-bis((S)-37-(((S)-1-(((S)-1-(((S)-1-(((S)-1-(((1S,9S)-9-ethyl-5-fluoro-9-hydroxy-4-methyl-10,13-dioxo-1,2,3,9,10,12,13,15-octahydrobenzo[de]pyrano[3′,4′:6,7]indolizino[1,2-b]quinolin-1-yl)amino)-1-oxopropan-2-yl)amino)-1-oxopropan-2-yl)amino)-1-oxopropan-2-yl)amino)-1-oxopropan-2-yl)carbamoyl)-31,39-dioxo-2,5,8,11,14,17,20,23,26,29-decaoxa-32,38-diazadotetracontan-42-yl)succinamide” showed a conjugation yield (conjugation step) of 67% yield.
In the case of tert-butyl glycylglycylglycylglycinate, the step yield (late stage modification step) is reported as 99% yield.
“tert-butyl (S)-(S)-(S)-(S)-(37-amino-31-oxo-2,5,8,11,14,17,20,23,26,29-decaoxa-32-azaoctatriacontan-38-oyl)glycylglycylglycylglycinate” showed a step yield (late stage modification step) of 100% yield.
In the case of “tert-butyl ((S)-37-(((benzyloxy)carbonyl)amino)-31-oxo-2,5,8,11,14,17,20,23,26,29-decaoxa-32-azaoctatriacontan-38-oyl)-L-alanyl-L-alanyl-L-alaninate”, the step yield (coupling step) is reported as 81% yield.
For “tert-butyl ((S)-37-amino-31-oxo-2,5,8,11,14,17,20,23,26,29-decaoxa-32-azaoctatriacontan-38-oyl)-L-alanyl-L-alanyl-L-alaninate”, the step yield (late stage modification step) was 100% yield.
“tert-butyl ((benzyloxy)carbonyl)-L-alanyl-L-alanyl-L-alanyl-L-alaninate” showed a step yield (coupling step) of 100% yield.
In the case of “tert-butyl (S)-(S)-(37-(4-(2, 5-dioxo-2, 5-dihydro-1H-pyrrol-1-yl)butanamido)-31, 38-dioxo-2, 5, 8, 11, 14, 17, 20, 23, 26, 29-decaoxa-32, 39-diazatritetracontan-43-oyl)glycylglycinate”, the step yield (coupling step) is reported as 83% and the step yield (late stage modification step) is reported as 100%.
Work on “(2S,5S,13S,14S,22S,25S)-13,14-bis(2,5-dioxo-2,5-dihydro-1H-pyrrol-1-yl)-2,25-dimethyl-4,7,12,15,20,23-hexaoxo-5,22-bis(31-oxo-2,5,8,11,14,17,20,23,26,29-decaoxa-32-azahexatriacontan-36-yl)-3,6,11,16,21,24-hexaazahexacosanedioic acid” yielded a step yield (late stage modification step) of 100% yield.
